In the supplement of paper PMC8326762, “A Small Molecule Inhibitor of Pex3–Pex19 Interaction Disrupts Glycosome Biogenesis and Causes Lethality in Trypanosoma brucei” (Frontiers in Cell and Developmental Biology, 2021):
Where a name gives a salt, the structure may show the parent alone. This is one part of the list. This is a noisy data set.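 Yeast growth was read as optical density at 600 nm. The two-hybrid strains grew without histidine, so growth needed the Pex3–Pex19 binding; a compound counted as trypanosome-selective if it cut growth of the trypanosome-pair strain by more than 65% and the human-pair strain by less than 65%.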

Experiments:
[1] = test system: Saccharomyces cerevisiae HF7c pdr5Δ; assay: general growth inhibition of yeast HF7c pdr5Δ in -Leu -Trp medium, relative to DMSO; higher = stronger general growth inhibition; conditions: 100 µM; 24 h
[2] = test system: human PEX3-PEX19 interaction (yeast two-hybrid); assay: growth inhibition of yeast two-hybrid strain reporting HsPex3-HsPex19 interaction, relative to DMSO; higher = stronger inhibition of human Pex3-Pex19 interaction / growth; conditions: 100 µM; 24 h; 3-aminotriazole 10 mM
[3] = test system: T. brucei Pex3-Pex19 interaction (yeast two-hybrid); assay: growth inhibition of yeast two-hybrid strain reporting TbPex3-TbPex19 interaction, relative to DMSO; higher = stronger inhibition of T. brucei Pex3-Pex19 interaction / growth; conditions: 100 µM; 24 h

Structure (SMILES)	general growth inhibition [1]	growth inhibition [2]	growth inhibition [3]
COc1cccc(NC(=O)/C=C/c2ccc(Cl)cc2)c1	41.2%	33%	41.2%
NS(=O)(=O)c1cc(C(=O)O)c(NCc2ccco2)cc1Cl [Furosemide]	39.6%	40.7%	60.4%
O=C(O)C1(C(=O)O)CCC1.[NH2-].[NH2-].[Pt+2] [Carboplatin]	22%	39.1%	49.1%
NCCC[C@](N)(C(=O)O)C(F)F (racemic) [DL-alpha-Difluoromethylornithine hydrochloride]	49.6%	35.7%	66.1%
OCCN1CCN(CCCN2c3ccccc3Sc3ccc(Cl)cc32)CC1 [Perphenazine]	28.6%	21%	48.7%
CC(=Cc1ccc(C(=O)O)cc1)c1ccc2c(c1)C(C)(C)CCC2(C)C	45%	39.7%	52.6%
Cc1scc2c1N(C(=O)CN1CCN(C)CC1)c1ccccc1NC2=O [Telenzepine dihydrochloride]	43.3%	49.7%	56.9%
CC1=C(C(=O)O)N2C(=O)[C@@H](NC(=O)[C@H](N)C3=CCC=CC3)[C@H]2SC1 [Cephradine]	53%	44.6%	62.5%
Cc1cc2c(cc1Cl)N(C(=O)Nc1ccc(Oc3cccnc3C)nc1)CC2	49.4%	50.4%	53.5%
CC(C)C[C@H](NC(=O)[C@@H](O)[C@H](N)Cc1ccccc1)C(=O)O [Bestatin hydrochloride]	41%	45.5%	56.3%
O=C(/C=C/c1ccc(O)cc1)CC(=O)/C=C/c1ccc(O)cc1 [Bisdemethoxycurcumin]	58.8%	51.8%	-2.67%
